For 1 substance, binding results are on record in publication doi:10.1101/2021.06.06.447241 (bioRxiv, 2021).

Sequences of proteins named here, by UniProt entry; tags and fusion partners are left off. A change or cut given only in a name is not applied to a line headed by its entry.
UniProt P15992: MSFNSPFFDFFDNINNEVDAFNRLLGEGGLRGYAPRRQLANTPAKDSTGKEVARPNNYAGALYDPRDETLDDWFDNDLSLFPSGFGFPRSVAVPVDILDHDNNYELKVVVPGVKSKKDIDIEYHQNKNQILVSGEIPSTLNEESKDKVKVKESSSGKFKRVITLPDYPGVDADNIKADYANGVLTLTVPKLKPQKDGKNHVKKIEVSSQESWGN
UniProt P25491: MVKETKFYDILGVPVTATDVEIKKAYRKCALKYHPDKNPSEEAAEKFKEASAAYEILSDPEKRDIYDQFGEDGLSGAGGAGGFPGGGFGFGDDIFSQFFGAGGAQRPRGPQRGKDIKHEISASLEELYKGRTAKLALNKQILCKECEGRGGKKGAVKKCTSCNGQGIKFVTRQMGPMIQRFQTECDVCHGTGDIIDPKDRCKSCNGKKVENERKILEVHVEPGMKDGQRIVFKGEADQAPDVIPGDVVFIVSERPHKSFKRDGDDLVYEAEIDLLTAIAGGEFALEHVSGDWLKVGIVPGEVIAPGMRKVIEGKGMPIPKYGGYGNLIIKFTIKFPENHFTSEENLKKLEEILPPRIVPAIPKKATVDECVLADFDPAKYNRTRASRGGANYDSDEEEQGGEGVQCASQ

In the assay the target is Hsp26::luciferase complex (yeast (Saccharomyces cerevisiae) | firefly) (UniProt P15992). The experiment in a line: cross-linking.

Results are given in words; binding and its absence hold for the method and conditions named. Some binding calls cover weakened binding; strength is not graded here.

As to “Ydj1 (Hsp40) (from UniProt P25491 1-409)”, the binding entry is recorded as “binds”.
